Structures are written as SMILES. Counter-ions that a name gives are not always drawn. In all, about 5,300 compounds went through this assay and about 130 (2.5%) showed an effect of 50% or more. The list shows a part of the results.

The subject of the assay is M. mycetomatis strain mm55. Conditions: primary screen, metabolic activity vs growth control; 96 h, 2 µM; inhibitor.
For the molecule `O=C1C2CCN(CC2)C1(CO)CO` [ONC0001542, prima1], the “% viability” value is 119.7%. With `CN1CCCN=C1COC(=O)C(O)(c1ccccc1)C1CCCCC1` (stereo not drawn) [ONC0002414, oxyphencyclimine hydrochloride], the “% viability” value was 137.8%. As for `CNC(=O)c1cccc(NC(=O)N2CCC(Oc3ccccc3Cl)CC2)c1` [ONC0000190, a939572], the “% viability” value is 66.79%.

For the molecule `CC[C@H]1OC(=O)[C@@](C)(F)C(=O)[C@H](C)[C@@H](O[C@@H]2O[C@H](C)C[C@H](N(C)C)[C@H]2O)[C@](C)(OC)C[C@@H](C)C(=O)[C@H](C)[C@H]2N(CCCCn3cc(-c4cccc(N)c4)nn3)C(=O)O[C@]12C` [ONC0002024, solithromycin], the “% viability” value stood at 84.59%. Turning to `CC(C)(Oc1ccc(Cl)cc1)C(=O)O` [ONC0000304, clofibric acid], the “% viability” value amounted to 84.93%. As for `COc1ccc([C@]2(O)CC[C@@H](N3CC[C@@H](NC(=O)CNC(=O)c4cccc(C(F)(F)F)c4)C3)CC2)cn1` [ONC0000726, incb 3284], the “% viability” value turned out to be 81.5%. With `COc1ccc(CCNCC(O)COc2cccc(C)c2)cc1OC` (stereo not drawn) [ONC0003395, bevantolol hcl], the “% viability” value is on record as 57.46%.

For the molecule `COc1cc(Nc2ncc(F)c(Nc3ccc4c(n3)NC(=O)C(C)(C)O4)n2)cc(OC)c1OC` [ONC0005012, r406free base], the “% viability” value worked out at 67.53%. Turning to `CCC(C(=O)O)c1ccc(CC(C)C)cc1` (stereo not drawn) [ONC0004724, butibufen], the “% viability” value is 92.99%. Regarding `CN(C)CC/C=C1\c2ccccc2CSc2ccccc21` [ONC0002296, dosulepin], the “% viability” value was 69.48%.

On to `O=C(Nc1cccc(C(F)(F)F)c1)Nc1ccc(Br)cc1-c1nnn[nH]1` [ONC0000034, ns3623], for which the “% viability” value came to 93.37%. Take `CC(=O)N[C@@H](CCC(N)=O)C(=O)O` [ONC0003225, aceglutamide]: the “% viability” value was 111.2%. For the molecule `COc1ccc(C(=O)Nc2sc3c(c2C(N)=O)CCCC3)cc1OC` [ONC0003764, tcs359], the “% viability” value is 108%. Then `O=S(=O)(NCC1CC1)c1ccc(Nc2nccc(N3CCCc4cc(O)ccc43)n2)cc1` [ONC0000300, pyrintegrin], with 82.61%.

In the case of `Cc1cc(C(=O)NNCc2ccccc2)no1` [ONC0005549, isocarboxazid], the “% viability” value was found to be 93.11%. With `CC(=O)NC[C@H]1CN(c2ccc(N3CCSCC3)c(F)c2)C(=O)O1` [ONC0005507, sutezolid], the “% viability” value is 87.63%. On to `COc1ccc(-c2ccc(=N)n(CCCC(=O)O)n2)cc1` [ONC0001493, gabazine], for which the “% viability” value came to 75.99%. As for `O=C(O)CCCN1C(=O)c2cccc3cccc(c23)C1=O` [ONC0002626, isodibut], the figure is 70.64%.

Values taken from PMC12670160, “A drug-repurposing screen of FDA- and EMA-approved drugs identifies two NF-κB inhibitors active against eumycetoma” (Journal of Antimicrobial Chemotherapy, 2025).
